# Experimental data: PubChem BioAssay AID1224830 (NIAID, 2016)
# Screen: 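Host factors that control LPS-induced TNF expression in human macrophages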 (primary screen)
# Cells: human THP-1 monocytic leukaemia cells, TNF dual-luciferase reporter clone, PMA-differentiated to macrophage-like cells
# Reagent: siRNA pool against human genes, 50 nM
# Time to read-out: LPS for 4 h, given about 3 days after siRNA transfection
# Challenge: bacterial LPS (TLR4 ligand), 10 ng/ml
# Detection: 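TNF firefly reporter luminescence divided by renilla, normalised to the plate median, then turned into a robust z-score for each replicate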
# Direction: TNF reporter robust z-score: higher = stronger TNF reporter response to LPS
# Rule for the call: 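Each well counts as active if its z-score is over 2.8 or under -1.5; controls are left without a call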
# In all, the deposit lists about 18,000 reagents; below is a part drawn at random. About 2,900 of all reagents (16%) were called active. 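Calls are made per well; low scores hint the gene aids the LPS response, high scores that it dampens it.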 Repeated entries: four replicate wells of each siRNA pool. Reagent sequences are not shown.
gene knocked down,TNF reporter robust z-score,Call
CSTA,-1.74,active
CSTA,-1.16,inactive
CSTA,-1.3,inactive
CSTA,-0.2,inactive
RNF207,0.84,inactive
RNF207,3.7,active
RNF207,0.75,inactive
RNF207,0.5,inactive
RGS4,-0.24,inactive
RGS4,-0.45,inactive
RGS4,-0.37,inactive
RGS4,-0.08,inactive
GINS1,-0.11,inactive
GINS1,-0.43,inactive
GINS1,-0.27,inactive
GINS1,0.03,inactive
ALG9,-1.54,active
ALG9,-1.76,active
ALG9,-1.06,inactive
CDK6,-0.58,inactive
CDK6,1.17,inactive
CDK6,-0.86,inactive
CDK6,0.65,inactive
GLIPR1,1.42,inactive
GLIPR1,1.29,inactive
GLIPR1,0.55,inactive
GLIPR1,1.59,inactive
SH3RF1,0.56,inactive
SH3RF1,0.02,inactive
SH3RF1,-0.34,inactive
SH3RF1,0.75,inactive
WNK4,1.4,inactive
WNK4,2.06,inactive
WNK4,-1.21,inactive
WNK4,-0.68,inactive
C1orf53,1.2,inactive
C1orf53,0.45,inactive
C1orf53,2.07,inactive
C1orf53,0.56,inactive
ADAM23,-0.86,inactive
ADAM23,2.61,inactive
ADAM23,0.88,inactive
ADAM23,1.27,inactive
ZDHHC22,-1.45,inactive
ZDHHC22,-1.17,inactive
ZDHHC22,-1.19,inactive
ZDHHC22,-1.3,inactive

In a second layout: entries from further up
GINS1 → TNF reporter robust z-score: -0.11; Call: inactive
GINS1 → TNF reporter robust z-score: -0.43; Call: inactive
